Experimental data from PubChem BioAssay AID493014 (National Center for Advancing Translational Sciences (NCATS), 2011).
Some of the results follow. The main result of the screen is listed elsewhere. These columns were measured beside it and carry no call. Most of these compounds were active or inconclusive in the main read-out, so they are no random draw. Potencies come from curve fits of mixed quality, noted in brackets.

Test: qHTS Assay to Find Inhibitors of Chronic Active B-Cell Receptor Signaling
Conditions: ABC-DLBCL IkBa-CBG/CBR reporter, luminescence ratio (green luciferase fused to IkBa over red control in TMD8 lymphoma cells), 4 h
Method in brief: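 Cell line TMD8 (human ABC DLBCL), stably expressing tet-inducible CBG68-IkBa fusion and CBR; IMDM/0.5% FBS; cpd up to 46 uM; dox induction, 4 h, 37C/5% CO2; dual luminescence; green/red ratio; MG132 control.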

[1] = measured here: CBR red luminescence, cell number
[2] = measured here: IkBa-CBG green luminescence

| SMILES | AC50 [1] | AC50 [2] |
| --- | --- | --- |
| COCc1cc(=O)n2[nH]c(-c3ccco3)cc2n1 | 35.5 µM [falling, single point] |  |
| c1ccc2oc(NC3=NCN(CC4CCCO4)CN3)nc2c1 (configuration not stated) | 9.2 µM [rising, partial curve, poor fit] |  |
| CSc1ccc(Cl)c(C(=O)Nc2ccc(Cl)cn2)c1 | 1 µM [falling, full curve, poor fit] |  |
| COCCNC(=O)c1ccc(Cn2c(SCC(=O)NCC3CCCO3)nc3ccc(Br)cc3c2=O)cc1 (configuration not stated) | 6.31 µM [falling, single point] |  |
| O=C(C[n+]1cc(-c2ccccc2)n2c1CCC2)OCc1ccccc1 | 20.6 µM [rising, partial curve, poor fit] |  |
| O=Cc1cccc(OC(=O)/C=C/c2ccco2)c1 | 15.8 µM [rising, partial curve] |  |
| COc1ccc(C(=O)Cn2ccsc2=NC(C)=O)cc1 | 22.4 µM [rising, single point] |  |
| Clc1ccc(C[n+]2cc(-c3ccccc3)n3c2CCC3)cc1 | 2.51 µM [falling, full curve, poor fit] |  |
| O=C(O)COc1ccccc1/C=N/NC(=O)c1ccc2c(c1)OCCO2 | 8.91 µM [falling, partial curve] |  |
| CCOC(=O)c1c(C)[nH]c(C(=O)COC(=O)c2cc(C)oc2C)c1C | 0.103 µM [rising, partial curve, poor fit] |  |
| CCOC(=O)N1CCN(Cc2c(F)cccc2F)CC1 | 32.6 µM [rising, single point] |  |
| O=C(NN=C(Cc1ccccc1)Cc1ccccc1)c1ccccc1F | 11.2 µM [falling, partial curve] |  |
| S=C(Nc1ccccc1)c1nc2ccccc2s1 | 0.231 µM [rising, full curve] | 5.17 µM [falling, full curve] |
| COc1ccc(NC(=O)C(c2cc3c(cc2[N+](=O)[O-])OCO3)N2CCN(C=O)CC2)cc1 (configuration not stated) | 13 µM [rising, partial curve, poor fit] |  |
| O=C(O)CSCc1cnn(-c2ccccc2)c1-n1cccc1 | 12.6 µM [falling, single point] |  |
| COC(=O)C(Cc1c[nH]c2ccccc12)NC(C)=O (configuration not stated) | 0.731 µM [rising, partial curve, poor fit] |  |
| CCn1c2ccc(C)cc2c2nc3cc(C(=O)O)ccc3nc21 | 29.1 µM [falling, partial curve, poor fit] |  |
| Oc1ccc(-c2cn3cc(C(F)(F)F)ccc3n2)cc1 | 2.31 µM [rising, partial curve] |  |
| O=C(CSc1nc2ccccc2o1)N1CCOCC1 | 0.398 µM [rising, full curve, poor fit] |  |
| COc1ccc(-c2cn[nH]c2-c2ccc(OCc3ccc([N+](=O)[O-])cc3)cc2O)cc1OC | 10 µM [falling, partial curve] |  |
| CC(CN1CCOCC1)OC(=O)c1ccc(Br)cc1 (configuration not stated) |  | 15.8 µM [falling, single point] |
| Nc1ccc(C(=O)N2CCN(S(=O)(=O)c3ccc(Cl)s3)CC2)cc1[N+](=O)[O-] | 23.1 µM [falling, single point] |  |

Arranged by SMILES length (high to low): some entries from above.

| SMILES | AC50 [1] | AC50 [2] |
| --- | --- | --- |
| COCCNC(=O)c1ccc(Cn2c(SCC(=O)NCC3CCCO3)nc3ccc(Br)cc3c2=O)cc1 (configuration not stated) | 6.31 µM [falling, single point] |  |
| c1ccc2oc(NC3=NCN(CC4CCCO4)CN3)nc2c1 (configuration not stated) | 9.2 µM [rising, partial curve, poor fit] |  |
| O=Cc1cccc(OC(=O)/C=C/c2ccco2)c1 | 15.8 µM [rising, partial curve] |  |

The listing continues:

| SMILES | AC50 [1] | AC50 [2] |
| --- | --- | --- |
| Cc1nnc2c3cnn(-c4ccc(Cl)cc4)c3ncn12 | 10 µM [rising, partial curve, poor fit] |  |
| Cc1ccc(-c2[nH]c(-c3ccc(Cl)cc3)nc2SCC(=O)NCC2CCCO2)cc1 (configuration not stated) | 2.31 µM [rising, partial curve] |  |
| O=C(O)c1ccccc1C(=O)OCc1c(-c2ccccc2)ncc2ccccc12 | 10.3 µM [falling, partial curve] |  |
| O=c1[nH]c(C2CCN(S(=O)(=O)c3ccc(S(=O)(=O)NC4CC4)cc3)CC2)nc2c1nnn2Cc1ccccc1 | 22.4 µM [falling, single point] |  |
| CN(C(=S)NC(=O)c1ccccc1)c1c(N)n(Cc2ccccc2)c(=O)[nH]c1=O | 0.398 µM [rising, full curve] |  |
| Cc1cccc(NC(=O)C2(c3ccccc3)CC2(Cl)Cl)c1 (configuration not stated) | 15.8 µM [falling, single point] |  |
| CN(C)S(=O)(=O)c1ccc(Cl)c(C(=O)NNC(=O)c2ccc3c(c2)OCO3)c1 | 4.61 µM [falling, full curve] |  |
| Cn1c(C(=O)N2CCCC(C(=O)NCc3ccc4c(c3)OCO4)C2)cc2sccc21 (configuration not stated) | 16.4 µM [falling, single point] |  |
| CC(C)C(=O)Nc1ccc(NC(=O)c2ccc(COc3ccccc3)cc2)cc1 | 4.47 µM [rising, partial curve, poor fit] |  |
| O=C(Cc1ccccc1Cl)Nc1nc2ccccc2[nH]1 | 2.51 µM [falling, partial curve, poor fit] |  |
| Cc1sc(NC(=O)c2ccc(Cl)s2)c(C(N)=O)c1C | 0.92 µM [falling, partial curve, poor fit] |  |
| Cc1nn(-c2ccccc2)cc1/C=N/NC(N)=S | 15.8 µM [rising, single point] |  |
| O=C1CC(N2CCOCC2)C(=O)N1c1ccc(Cl)cc1 (configuration not stated) | 20 µM [rising, single point] |  |
| O=Cc1c(Cl)nc2ccccn2c1=O | 17.8 µM [falling, single point] |  |
| CC1=NN(C(=O)Cc2ccc([N+](=O)[O-])cc2)C(O)(C(F)(F)C(F)(F)F)C1 (configuration not stated) | 12.6 µM [falling, single point] |  |
| COc1ccc(NC(=O)CCCc2ccccc2)c(OC)c1 | 8.91 µM [rising, partial curve, poor fit] |  |
| COc1ccc(N(CC(O)CN2C(=O)NC(C)(C)C2=O)S(=O)(=O)c2ccc(C)cc2)cc1 (configuration not stated) | 20.6 µM [rising, single point] |  |
| Cc1oc(-c2ccccc2)cc1C(=O)NC1CCN(Cc2ccccc2)CC1 | 35.5 µM [rising, single point] |  |
| Cc1nn(CCC#N)c(C)c1Oc1ccccc1O | 5.62 µM [rising, single point] |  |
| CCN(CC)S(=O)(=O)c1ccc(C)c(NC(=S)Nc2cccc(S(=O)(=O)N3CCCCCC3)c2)c1 | 29.1 µM [falling, single point] |  |
| C#CCNC(=O)C1=C[C@H](c2ccccc2)[C@@H](CCCO)[C@H](OCC)O1 | 14.1 µM [rising, single point] |  |
| COc1ccc(C(=O)N2CCN(c3ccc(NC(=O)c4cccnc4)cc3)CC2)cc1 | 11.2 µM [falling, single point] |  |

| SMILES | AC50 [1] | AC50 [2] |
| --- | --- | --- |
| CCOC(=O)c1[nH]c(C)c(C(=O)OC)c1C | 1.12 µM [rising, full curve] |  |
| CC(C)(C)C(=O)NCCN1C(=O)S/C(=C\c2ccc([N+](=O)[O-])cc2)C1=O | 29.1 µM [falling, single point] |  |
| Cc1ccccc1C(=O)Nc1ccc(C(=O)N/N=C/c2ccccn2)cc1 | 3.55 µM [falling, full curve, poor fit] |  |
| Cc1ccc(Cl)cc1N1CCN(C(=O)CCS(=O)(=O)c2cccc3nonc23)CC1 | 4.61 µM [falling, full curve, poor fit] |  |
| CCOC(CCNC(=O)c1cc(-c2cccs2)nc2ccccc12)OCC | 1.41 µM [rising, partial curve, poor fit] |  |
| O=C(/C(=C/O)N=Nc1ccccc1)c1ccco1 | 11.2 µM [rising, partial curve] | 35.5 µM [falling, single point] |
| O=C(O)c1ccccc1/C=N/Nc1ccc(S(=O)(=O)N2CCCC2)cc1[N+](=O)[O-] | 6.31 µM [falling, single point] |  |
| Cn1cnc([N+](=O)[O-])c1Sc1nc2ccccc2[nH]1 | 3.55 µM [falling, partial curve, poor fit] |  |
| CCOC(=O)C1(Cc2ccccc2C(F)(F)F)CCN(C(C)COC)CC1 (configuration not stated) | 0.447 µM [rising, full curve] |  |
| CC(C)c1cc(C(=O)NNC(=S)NCc2ccco2)c(O)c(C(C)C)c1 | 29.1 µM [falling, single point] |  |
| CCCCN(C)CCn1c(=S)[nH]c2cc(OCC)c(OCC)cc2c1=O | 35.5 µM [rising, single point] |  |
| Cn1c(=O)c2c(ncn2CC(=O)OCC(=O)NNC(=O)c2ccc(Cl)cc2)n(C)c1=O | 16.4 µM [rising, partial curve, poor fit] |  |
| Cn1c2c(c(=O)n(C)c1=O)[C@@]1(C(=O)Nc3ccccc31)C(C#N)=C(N)O2 | 29.1 µM [falling, single point] |  |
| COc1ccc(-c2nn(-c3ccccc3)cc2/C=C2/SC(=S)N(Cc3ccco3)C2=O)c(C)c1 | 17.8 µM [rising, partial curve, poor fit] |  |
| CN(C)c1ccc(-n2cccc2)cc1 | 3.16 µM [falling, partial curve, poor fit] |  |
| CCN(CC)c1nc2c(s1)C(=O)NCCC2 | 2.82 µM [rising, partial curve, poor fit] |  |
| N/C(=N\NC(=O)c1ccccc1Cl)c1cc2ccccc2oc1=O | 3.98 µM [falling, full curve] |  |
| CC1(C)CC(=O)C2=C(C1)N1CCCCC1CC2=O (configuration not stated) | 3.16 µM [falling, partial curve, poor fit] |  |
| C=CCNC(=O)c1ccccc1NC(=O)COc1ccc(OC)cc1 | 35.5 µM [falling, single point] |  |
| CCNC(=O)COc1ccc(OCc2ccccc2)cc1 | 0.282 µM [rising, full curve, poor fit] |  |
| O=C(CCCN1C(=O)/C(=C\c2cccs2)SC1=S)Nc1ccc(O)cc1C(=O)O | 0.891 µM [falling, full curve] |  |
